Results are given in words; binding and its absence hold for the method and conditions named. Some binding calls cover weakened binding; strength is not graded here.

Sequences of proteins named here, by UniProt entry; tags and fusion partners are left off.
UniProt Q04IN8: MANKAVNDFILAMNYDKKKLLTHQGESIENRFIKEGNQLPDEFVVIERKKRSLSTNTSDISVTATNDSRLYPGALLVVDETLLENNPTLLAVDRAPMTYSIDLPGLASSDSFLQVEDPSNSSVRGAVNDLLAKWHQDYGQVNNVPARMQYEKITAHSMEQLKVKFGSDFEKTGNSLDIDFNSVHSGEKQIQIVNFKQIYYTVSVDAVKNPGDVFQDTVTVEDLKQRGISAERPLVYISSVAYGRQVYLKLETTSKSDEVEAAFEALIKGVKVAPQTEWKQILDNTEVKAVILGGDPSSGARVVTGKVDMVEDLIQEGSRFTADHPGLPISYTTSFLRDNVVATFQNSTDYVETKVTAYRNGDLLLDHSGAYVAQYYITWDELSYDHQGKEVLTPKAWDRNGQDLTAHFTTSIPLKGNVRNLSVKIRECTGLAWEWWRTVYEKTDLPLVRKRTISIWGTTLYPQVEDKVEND

Binding data for one substance are collected here from publication PMC7067851, “Formation of pre-pore complexes of pneumolysin is accompanied by a decrease in short-range order of lipid molecules throughout vesicle bilayers” (Scientific Reports, 2020).

For the assay, the target named is wild-type pneumolysin (Streptococcus pneumoniae) (UniProt Q04IN8). Put plainly: negative-stain transmission electron microscopy; protein incubated with unilamellar liposomes (1:1 POPC/chol), stained with 1% w/v uranyl acetate on a copper grid; membrane-bound oligomeric structures visualised; both purified.

As for “wild-type pneumolysin (from UniProt Q04IN8 1-471)”, the binding result is reported as “binds”.
